Some of these results come from one statement about several compounds together. At least one structure is not confirmed: it was looked up by name or label, or the drawing left a doubt.
Test system: RJ002L cells
Test: Caspase inhibitor pretreatment of RJ002L cells before z-Leu-Leu-Nle-CHO
Format: cell-based, human
Conditions: RJ002L pretreated; data not shown

How did the “reduction of z-Leu-Leu-Nle-CHO-mediated apoptotic response” value turn out when `CC(=O)N[C@@H](CC(=O)O)C(=O)N[C@@H](CCC(=O)O)C(=O)N[C@H](C(=O)N[C@H](C=O)CC(=O)O)C(C)C` [DEVD-CHO] was run?
The value was 30-50%.
